From the supplement of paper PMC11732987, “Enantioselective OTUD7B fragment discovery through chemoproteomics screening and high-throughput optimisation” (Communications Chemistry, 2025)
The other results are listed elsewhere or left out. The data scatter; read single values as rough.

Amino acid sequences for entries named in this document (tags omitted). A change or cut given only in a name is not applied to a line headed by its entry. Residues count along the entry.
UniProt Q03426: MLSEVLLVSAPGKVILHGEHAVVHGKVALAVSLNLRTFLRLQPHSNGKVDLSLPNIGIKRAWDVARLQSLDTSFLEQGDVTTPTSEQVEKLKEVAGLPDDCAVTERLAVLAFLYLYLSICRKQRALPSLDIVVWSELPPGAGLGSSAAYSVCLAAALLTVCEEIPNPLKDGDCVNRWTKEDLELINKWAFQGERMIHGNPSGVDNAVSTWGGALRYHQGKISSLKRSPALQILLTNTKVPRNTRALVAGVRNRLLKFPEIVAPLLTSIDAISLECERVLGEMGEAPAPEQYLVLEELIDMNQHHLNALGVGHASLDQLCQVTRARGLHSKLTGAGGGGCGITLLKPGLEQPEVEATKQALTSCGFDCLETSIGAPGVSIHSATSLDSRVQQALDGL
UniProt Q9NYA4, 744-766: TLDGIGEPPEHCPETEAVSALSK
UniProt P52701, 79-99: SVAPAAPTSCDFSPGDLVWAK
UniProt Q6P1R3: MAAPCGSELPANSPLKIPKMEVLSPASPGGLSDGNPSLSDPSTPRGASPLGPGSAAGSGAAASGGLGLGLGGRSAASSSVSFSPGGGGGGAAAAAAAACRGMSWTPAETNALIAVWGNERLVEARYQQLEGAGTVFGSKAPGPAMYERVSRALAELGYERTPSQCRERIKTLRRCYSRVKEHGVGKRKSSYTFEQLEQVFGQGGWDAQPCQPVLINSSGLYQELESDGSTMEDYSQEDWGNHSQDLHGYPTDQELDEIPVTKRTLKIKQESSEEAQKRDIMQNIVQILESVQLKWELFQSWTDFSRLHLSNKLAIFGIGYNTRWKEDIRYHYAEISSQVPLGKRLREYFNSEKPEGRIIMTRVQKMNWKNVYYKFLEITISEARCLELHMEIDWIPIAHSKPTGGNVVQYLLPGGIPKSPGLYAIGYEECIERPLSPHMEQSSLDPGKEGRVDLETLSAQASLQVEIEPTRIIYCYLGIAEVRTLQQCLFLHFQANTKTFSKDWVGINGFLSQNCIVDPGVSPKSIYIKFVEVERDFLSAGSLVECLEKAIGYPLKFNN
UniProt Q14CX7: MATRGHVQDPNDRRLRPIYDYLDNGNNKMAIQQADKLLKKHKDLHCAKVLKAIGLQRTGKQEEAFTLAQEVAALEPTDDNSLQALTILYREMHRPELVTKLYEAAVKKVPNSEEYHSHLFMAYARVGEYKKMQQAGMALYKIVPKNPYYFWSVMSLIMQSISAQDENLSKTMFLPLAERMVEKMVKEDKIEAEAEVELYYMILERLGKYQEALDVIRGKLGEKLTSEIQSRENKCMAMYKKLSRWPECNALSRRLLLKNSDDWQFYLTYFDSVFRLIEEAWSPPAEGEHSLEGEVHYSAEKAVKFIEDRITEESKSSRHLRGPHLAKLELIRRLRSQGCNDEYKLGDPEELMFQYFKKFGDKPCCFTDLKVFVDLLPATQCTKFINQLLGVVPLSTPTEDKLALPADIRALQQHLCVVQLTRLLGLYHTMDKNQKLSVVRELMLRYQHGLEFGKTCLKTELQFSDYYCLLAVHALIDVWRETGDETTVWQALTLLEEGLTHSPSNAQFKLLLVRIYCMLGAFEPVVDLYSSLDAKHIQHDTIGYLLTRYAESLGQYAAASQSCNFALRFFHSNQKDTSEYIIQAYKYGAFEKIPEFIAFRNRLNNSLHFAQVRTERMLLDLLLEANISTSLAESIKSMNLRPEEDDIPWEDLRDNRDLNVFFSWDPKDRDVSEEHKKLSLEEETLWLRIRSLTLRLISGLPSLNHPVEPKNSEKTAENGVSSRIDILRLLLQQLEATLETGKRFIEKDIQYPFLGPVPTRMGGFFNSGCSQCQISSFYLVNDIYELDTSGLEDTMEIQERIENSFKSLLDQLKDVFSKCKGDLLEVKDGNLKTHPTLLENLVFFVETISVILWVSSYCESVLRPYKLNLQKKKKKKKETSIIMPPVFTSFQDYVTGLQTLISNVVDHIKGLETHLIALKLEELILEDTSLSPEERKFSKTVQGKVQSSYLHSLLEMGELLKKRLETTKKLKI
UniProt Q96I59: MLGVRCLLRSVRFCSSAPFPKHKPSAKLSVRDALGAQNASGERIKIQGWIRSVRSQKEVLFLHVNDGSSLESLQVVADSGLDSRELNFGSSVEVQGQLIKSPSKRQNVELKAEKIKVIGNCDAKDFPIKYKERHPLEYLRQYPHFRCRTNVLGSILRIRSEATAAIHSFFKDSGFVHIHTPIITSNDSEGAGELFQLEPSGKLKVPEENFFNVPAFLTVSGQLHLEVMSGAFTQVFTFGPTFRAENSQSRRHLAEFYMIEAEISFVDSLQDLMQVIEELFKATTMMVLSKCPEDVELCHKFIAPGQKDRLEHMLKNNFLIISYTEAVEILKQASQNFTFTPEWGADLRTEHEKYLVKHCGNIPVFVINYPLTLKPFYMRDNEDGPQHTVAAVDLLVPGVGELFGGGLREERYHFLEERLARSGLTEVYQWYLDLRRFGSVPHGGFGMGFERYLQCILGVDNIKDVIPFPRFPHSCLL
UniProt Q9Y2Z2: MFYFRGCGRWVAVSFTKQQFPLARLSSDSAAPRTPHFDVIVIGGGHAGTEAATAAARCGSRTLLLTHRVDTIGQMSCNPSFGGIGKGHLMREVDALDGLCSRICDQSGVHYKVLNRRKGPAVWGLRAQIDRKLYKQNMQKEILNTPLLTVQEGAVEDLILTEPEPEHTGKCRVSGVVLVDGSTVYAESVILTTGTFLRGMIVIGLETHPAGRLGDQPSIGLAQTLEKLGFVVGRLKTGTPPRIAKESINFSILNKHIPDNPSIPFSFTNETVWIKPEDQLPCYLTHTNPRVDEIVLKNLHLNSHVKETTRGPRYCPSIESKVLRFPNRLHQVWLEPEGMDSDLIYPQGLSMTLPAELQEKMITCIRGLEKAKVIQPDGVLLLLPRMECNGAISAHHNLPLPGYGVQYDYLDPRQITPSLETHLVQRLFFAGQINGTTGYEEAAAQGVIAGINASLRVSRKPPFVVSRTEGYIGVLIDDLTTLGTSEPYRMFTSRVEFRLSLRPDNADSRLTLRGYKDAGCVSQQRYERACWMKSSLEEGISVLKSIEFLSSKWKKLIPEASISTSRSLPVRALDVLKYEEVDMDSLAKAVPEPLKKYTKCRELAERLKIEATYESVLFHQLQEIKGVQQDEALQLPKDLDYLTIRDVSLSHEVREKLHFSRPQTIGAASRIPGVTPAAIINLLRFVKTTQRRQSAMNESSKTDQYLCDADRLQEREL
UniProt O94832: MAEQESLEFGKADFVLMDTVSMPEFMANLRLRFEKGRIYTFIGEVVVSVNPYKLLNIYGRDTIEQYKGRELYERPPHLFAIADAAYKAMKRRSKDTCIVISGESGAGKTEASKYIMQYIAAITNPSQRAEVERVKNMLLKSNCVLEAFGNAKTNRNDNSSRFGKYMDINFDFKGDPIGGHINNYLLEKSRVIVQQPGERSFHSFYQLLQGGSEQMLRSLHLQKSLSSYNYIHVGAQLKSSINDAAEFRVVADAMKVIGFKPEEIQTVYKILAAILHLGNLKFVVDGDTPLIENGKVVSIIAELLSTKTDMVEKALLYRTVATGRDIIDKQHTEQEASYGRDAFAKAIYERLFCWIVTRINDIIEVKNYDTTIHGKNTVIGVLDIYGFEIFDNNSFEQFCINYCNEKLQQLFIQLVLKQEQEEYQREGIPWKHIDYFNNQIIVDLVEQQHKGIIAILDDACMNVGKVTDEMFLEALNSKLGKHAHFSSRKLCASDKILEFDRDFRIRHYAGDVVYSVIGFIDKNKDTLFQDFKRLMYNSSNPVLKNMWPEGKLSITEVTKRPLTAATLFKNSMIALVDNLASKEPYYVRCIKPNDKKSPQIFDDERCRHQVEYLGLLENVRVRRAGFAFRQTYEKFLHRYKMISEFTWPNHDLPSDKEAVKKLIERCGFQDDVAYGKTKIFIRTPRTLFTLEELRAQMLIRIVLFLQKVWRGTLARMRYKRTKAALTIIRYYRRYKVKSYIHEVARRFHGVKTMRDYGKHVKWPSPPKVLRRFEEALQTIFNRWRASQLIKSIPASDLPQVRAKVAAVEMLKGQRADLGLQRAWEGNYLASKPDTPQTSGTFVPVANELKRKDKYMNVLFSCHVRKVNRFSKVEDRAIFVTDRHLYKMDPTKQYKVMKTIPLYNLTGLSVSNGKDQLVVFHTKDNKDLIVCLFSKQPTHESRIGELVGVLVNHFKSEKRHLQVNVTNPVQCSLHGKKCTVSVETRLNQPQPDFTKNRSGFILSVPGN
UniProt Q13459, 2016-2045: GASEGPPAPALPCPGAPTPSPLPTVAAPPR
UniProt Q96H55, whole entry, looked up: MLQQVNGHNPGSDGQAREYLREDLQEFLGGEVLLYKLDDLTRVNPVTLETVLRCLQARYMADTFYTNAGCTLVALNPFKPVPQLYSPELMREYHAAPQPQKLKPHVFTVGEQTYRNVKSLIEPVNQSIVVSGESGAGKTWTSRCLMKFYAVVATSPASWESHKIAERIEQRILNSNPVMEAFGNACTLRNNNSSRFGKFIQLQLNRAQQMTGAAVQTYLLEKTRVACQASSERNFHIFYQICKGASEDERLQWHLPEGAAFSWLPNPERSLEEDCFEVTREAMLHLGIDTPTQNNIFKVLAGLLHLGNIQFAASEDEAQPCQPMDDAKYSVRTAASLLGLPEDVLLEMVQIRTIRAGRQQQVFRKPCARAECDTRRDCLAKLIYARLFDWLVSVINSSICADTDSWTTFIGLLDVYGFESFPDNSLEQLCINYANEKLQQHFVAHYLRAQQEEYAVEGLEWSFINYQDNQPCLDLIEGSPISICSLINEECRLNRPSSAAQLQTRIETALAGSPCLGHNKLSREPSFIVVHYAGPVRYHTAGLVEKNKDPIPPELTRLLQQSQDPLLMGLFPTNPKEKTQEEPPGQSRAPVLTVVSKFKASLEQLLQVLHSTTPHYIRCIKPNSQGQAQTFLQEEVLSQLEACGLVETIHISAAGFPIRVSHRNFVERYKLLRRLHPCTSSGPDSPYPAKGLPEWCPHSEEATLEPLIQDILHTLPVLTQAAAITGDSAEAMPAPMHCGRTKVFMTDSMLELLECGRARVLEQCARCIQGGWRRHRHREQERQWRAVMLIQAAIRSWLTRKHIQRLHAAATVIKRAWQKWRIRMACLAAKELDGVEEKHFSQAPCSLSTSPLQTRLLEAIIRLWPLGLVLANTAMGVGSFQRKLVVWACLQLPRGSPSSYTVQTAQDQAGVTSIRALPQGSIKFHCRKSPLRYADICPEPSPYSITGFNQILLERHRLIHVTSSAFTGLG
UniProt P20585: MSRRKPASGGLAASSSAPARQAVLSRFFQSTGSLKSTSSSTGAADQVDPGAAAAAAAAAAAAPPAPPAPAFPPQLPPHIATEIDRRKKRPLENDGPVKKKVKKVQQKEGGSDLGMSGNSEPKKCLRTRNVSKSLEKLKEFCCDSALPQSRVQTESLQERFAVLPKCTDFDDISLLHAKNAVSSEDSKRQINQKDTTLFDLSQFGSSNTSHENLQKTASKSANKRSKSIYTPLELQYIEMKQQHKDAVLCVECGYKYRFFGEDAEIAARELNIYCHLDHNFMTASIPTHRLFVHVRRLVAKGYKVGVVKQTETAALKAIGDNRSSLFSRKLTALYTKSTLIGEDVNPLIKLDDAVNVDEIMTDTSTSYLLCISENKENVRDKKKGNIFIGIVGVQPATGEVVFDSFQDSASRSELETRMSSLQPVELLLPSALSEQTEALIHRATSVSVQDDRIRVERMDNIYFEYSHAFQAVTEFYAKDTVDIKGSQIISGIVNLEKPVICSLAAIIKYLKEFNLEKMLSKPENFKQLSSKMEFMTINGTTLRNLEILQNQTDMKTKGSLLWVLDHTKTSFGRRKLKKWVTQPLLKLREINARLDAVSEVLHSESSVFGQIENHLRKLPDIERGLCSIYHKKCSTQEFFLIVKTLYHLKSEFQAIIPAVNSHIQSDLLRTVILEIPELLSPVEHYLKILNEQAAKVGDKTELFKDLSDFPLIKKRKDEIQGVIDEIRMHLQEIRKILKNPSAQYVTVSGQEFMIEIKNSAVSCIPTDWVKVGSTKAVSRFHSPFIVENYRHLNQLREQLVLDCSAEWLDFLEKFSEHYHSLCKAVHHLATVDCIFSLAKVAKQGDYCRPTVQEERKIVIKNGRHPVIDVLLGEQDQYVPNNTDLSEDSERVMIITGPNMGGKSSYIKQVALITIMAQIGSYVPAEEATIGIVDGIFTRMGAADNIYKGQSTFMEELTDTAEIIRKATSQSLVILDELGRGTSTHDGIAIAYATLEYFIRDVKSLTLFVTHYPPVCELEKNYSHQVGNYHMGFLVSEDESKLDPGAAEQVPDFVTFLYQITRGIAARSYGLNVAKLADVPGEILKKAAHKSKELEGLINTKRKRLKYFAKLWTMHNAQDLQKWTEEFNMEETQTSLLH

Experiments:
[1] = compound: ClCC(=O)N[C@@H]1CCCc2ccccc12; test: log2 mean competition ratio of IA-DTB cysteine labelling (DMSO/compound) (log2 ratio); higher = stronger cysteine engagement by compound; conditions: treatment time: 4 h, cell line lysate: HEK293T
Method: (§1)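 IA-DTB competitive cysteine chemoproteomics in HEK293T RIPA lysate. Lysates were treated with compound 29 or 30 at 50 or 200 µM for 4 h, then IA-DTB (500 µM, 1 h), trypsin-digested, NeutrAvidin-enriched and analysed by diaPASEF. Competition ratio = intensity DMSO / intensity compound (n=4 treated, n=64 DMSO); binding: mean log2 CR ≥ 1 and p ≤ 0.05 plus QC filters. Target is the cysteine site.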

[2] = compound: ClCC(=O)N[C@H]1CCCc2ccccc12; test: as above; conditions: treatment time: 4 h, cell line lysate: HEK293T
Method: as §1

Target | log2 mean competition ratio ([1]; 50 µM) | log2 mean competition ratio ([1]; 200 µM) | log2 mean competition ratio ([2]; 50 µM) | log2 mean competition ratio ([2]; 200 µM)
MVK C101 (UniProt Q03426) | -0.154 | -0.0324 | 0.0436 | -0.0354
N4BP2L2 C578 | 0.0961 | -0.0181 | -0.175 | 0.101
MSL2 C476 (UniProt Q9HCI7) | -0.058 | 0.0599 | 0.0396 | 0.543
MTMR4 C755 (UniProt Q9NYA4) | -0.43 | 0.235 | -0.289 | -0.062
MSH6 C88 (UniProt P52701) | 0.295 | 0.383 | 0.315 | 0.401
MSANTD2 C5 (UniProt Q6P1R3) | -0.154 | -0.0912 | -0.21 | 0.057
MTOR C713 (UniProt P42345) | 0.0315 | -0.338 | 0.323 | -0.215
MRPL19 C248 (UniProt P49406) | -0.114 | -0.105 | 0.0178 | -0.0416
MYO5B C10 | -0.164 | 0.26 | -0.107 | 0.184
MYSM1 C344 (UniProt Q5VVJ2) | -0.485 | -0.0988 | -0.0175 | 0.375
NAA25 C381 (UniProt Q14CX7) | -0.00983 | -0.152 | -0.531 | -0.131
MTHFD1L C61 | -0.0139 | 0.0654 | 0.0137 | 0.114
NARS2 C121 (UniProt Q96I59) | -0.158 | 0.00776 | -0.162 | 0.146
MTO1 C520 (UniProt Q9Y2Z2) | -0.12 | 0.0354 | 0.146 | 0.0998
MYO1D C491 (UniProt O94832) | -0.109 | 0.0484 | -0.049 | -0.111
MRPL44 C136 (UniProt Q9H9J2) | 0.322 | -0.0702 | 0.827 | -0.282
MSL1 C221 (UniProt Q68DK7) | 0.593 | 0.359 | 2.41 | 0.0917
MYO9B C2028 (UniProt Q13459) | -0.132 | -0.576 | 0.0468 | -0.43
MYO1D C143 (UniProt O94832) | 0.0652 | 0.0365 | 0.0739 | 0.0861
MRPS12 C132 (UniProt O15235) | 0.188 | -0.313 | 0.232 | -0.306
NAA15 C214 | -0.26 | -0.16 | -0.398 | -0.221
MYO19 C764 (UniProt Q96H55) | -0.121 | -0.188 | 0.131 | -0.0435
MSH3 C633 (UniProt P20585) | -0.143 | -0.144 | -0.251 | -0.35
MTARC1 C300 | -0.093 | 0.0103 | -0.181 | 0.0228

Single entries from the list:
log2 mean competition ratio ([1]; 200 µM), MSANTD2 C5 (UniProt Q6P1R3) reads -0.0912
log2 mean competition ratio ([2]; 50 µM), MSL1 C221 (UniProt Q68DK7) reads 2.41
